Earlier results as cited in patent publication US20100022568A1, “ENDOTHELIN RECEPTOR ANTAGONISTS FOR EARLY STAGE IDIOPATHIC PULMONARY FIBROSIS” (Actelion Pharmaceeuticals Ltd., priority 2006, published 2010).
For at least one compound, name, drawing or mass did not settle the structure.

Test system: human fibroblasts
Settings: cited from earlier work

COc1ccc(C2(O)OC(=O)C(c3ccc4c(c3)OCO4)=C2Cc2cc(OC)c(OC)c(OC)c2)cc1 (stereo not drawn) [PD 156707]
Ability to contract a collagen matrix (cell cultures): reduced | Matrix metalloprotease-1 (collagenase) production (cell cultures): increased | Fibroblast proliferation induced by ET-1 (human fibroblasts): attenuated
